Laboratory results published in patent publication US11911464B2, “Anti-parasitic immunological compositions” (Prommune, Inc., priority 2018, dated 2024).
Some entries share one result that the patent states for a list of compounds.

Tested on: bone marrow-derived BALB/c DCs
Test: Murine dendritic cell activation (cytokine release) by EP67 vaccines
Format: cell-based, mouse
Conditions: 6 hr exposure
Source text: A subset of vaccines were developed with murine DC's from BALB/c bone marrow, and examined for cytokine response. […] Bone marrow-derived BALB/c DCs were separately exposed to EP67-containing vaccines #1 (TgSAG1) and #2 (TgGRA1) (Example 3), and compared to sham exposure (media). […] KC/GRO, also known as CXCL1, is a potent neutrophil chemotactic cytokine. Increases in INF-gamma, IL-1b, and TNF-α were also observed, and are in-line with expectations of EP67 engagement of the C5a receptor and subsequent activation of dendritic cells.

EEVIDTMKSMQRDEERRYSFKDMP(MeL)aR (EEVIDTMKSMQRDEERRYSFKDMPLAR; N-methyl-leucine, D-arginine; MOD_RES (25)..(25) N-methyl Leu; MOD_RES (26)..(26) D-Ala) [Vaccine 2]
KC/GRO increase compared to sham: ≥ 80%

SFKDILPKLSENPWQRRYSFKDMP(MeL)aR (SFKDILPKLSENPWQRRYSFKDMPLAR; N-methyl-leucine, D-arginine; MOD_RES (25)..(25) N-methyl Leu; MOD_RES (26)..(26) D-Ala) [Vaccine 1]
KC/GRO increase compared to sham: ≥ 80%
